Measurements reported in article PMC5727187, “Insights into the structure and assembly of a bacterial cellulose secretion system” (Nature Communications, 2017).
Results are given in words; binding and its absence hold for the method and conditions named. Binding seen in cells or lysates may run through a third protein. Here binding means that the protein was enriched with, or labelled near, the bait; the list need not be complete. Tags and fused reporters may be left off the sequences shown. Each block holds one molecule with its values, some of them ahead of it.

By UniProt entry, the sequences of proteins in these tests, tags left out.
UniProt P37657: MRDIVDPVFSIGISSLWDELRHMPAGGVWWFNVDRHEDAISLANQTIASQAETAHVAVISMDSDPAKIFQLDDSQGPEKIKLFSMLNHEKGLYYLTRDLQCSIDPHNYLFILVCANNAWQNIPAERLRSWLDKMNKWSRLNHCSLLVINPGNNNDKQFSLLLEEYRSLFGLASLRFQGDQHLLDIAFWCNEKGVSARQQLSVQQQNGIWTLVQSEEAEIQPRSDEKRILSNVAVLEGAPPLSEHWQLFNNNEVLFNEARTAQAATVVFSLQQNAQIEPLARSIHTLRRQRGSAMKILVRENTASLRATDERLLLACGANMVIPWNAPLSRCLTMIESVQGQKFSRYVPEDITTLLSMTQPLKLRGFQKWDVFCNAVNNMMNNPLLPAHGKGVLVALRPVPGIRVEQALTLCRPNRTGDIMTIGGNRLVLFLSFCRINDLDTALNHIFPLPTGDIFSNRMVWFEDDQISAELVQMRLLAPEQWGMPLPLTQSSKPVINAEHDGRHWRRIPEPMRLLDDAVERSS

Molecular target: T1, BcsA^HA-FLAG synthase (E. coli 1094) (UniProt P37653)
T1 sequence: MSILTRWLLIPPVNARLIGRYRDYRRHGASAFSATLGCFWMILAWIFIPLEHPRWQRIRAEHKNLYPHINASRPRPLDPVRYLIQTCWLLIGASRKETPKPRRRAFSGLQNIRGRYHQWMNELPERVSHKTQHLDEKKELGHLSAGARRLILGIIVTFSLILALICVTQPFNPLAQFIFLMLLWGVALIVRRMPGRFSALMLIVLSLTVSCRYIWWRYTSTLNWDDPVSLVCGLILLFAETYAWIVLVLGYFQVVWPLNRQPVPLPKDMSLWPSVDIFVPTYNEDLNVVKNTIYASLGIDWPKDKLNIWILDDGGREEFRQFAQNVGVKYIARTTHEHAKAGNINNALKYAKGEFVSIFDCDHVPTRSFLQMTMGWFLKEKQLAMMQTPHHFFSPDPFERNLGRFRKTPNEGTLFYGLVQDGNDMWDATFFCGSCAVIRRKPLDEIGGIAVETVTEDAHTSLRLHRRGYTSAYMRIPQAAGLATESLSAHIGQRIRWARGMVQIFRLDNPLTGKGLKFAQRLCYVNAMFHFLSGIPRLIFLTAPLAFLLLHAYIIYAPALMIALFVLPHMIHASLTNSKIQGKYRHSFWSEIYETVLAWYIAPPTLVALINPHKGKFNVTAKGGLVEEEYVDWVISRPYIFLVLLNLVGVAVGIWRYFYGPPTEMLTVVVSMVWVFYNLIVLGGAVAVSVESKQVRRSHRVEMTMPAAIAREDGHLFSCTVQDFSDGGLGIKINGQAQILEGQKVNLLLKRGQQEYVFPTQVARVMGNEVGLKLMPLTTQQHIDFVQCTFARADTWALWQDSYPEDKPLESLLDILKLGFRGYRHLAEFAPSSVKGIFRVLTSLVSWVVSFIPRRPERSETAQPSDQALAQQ
Experiment: affinity purification with mass spectrometry; ANTI-FLAG M2 affinity gel on detergent-solubilised membranes (digitonin, β-DDM, DM-NPG, LM-NPG) of E. coli 1094 bcsA^HA-FLAG 2K7, 3X FLAG peptide elution, 10–40% glycerol gradient; fractions analysed by NS-EM, SDS-PAGE, LC-MS and western blot; 20 mM HEPES pH 8.0, 120 mM NaCl, AppCp, c-di-GMP

- binding: binds
Molecule: BcsE (from UniProt P37657 1-523)

- binding: binds
B1: BcsF (protein, UniProt P0ADJ5 1-63)
chain: MMTISDIIEIIVVCALIFFPLGYLARHSLRRIRDTLRLFFAKPRYVKPAGTLRRTEKARATKK

More lines, now with the values behind:

Molecule: BcsR (E. coli 1094)
- binding: binds

B2: BcsG (protein, UniProt P37659 1-559)
chain: MTQFTQNTAMPSSLWQYWRGLSGWNFYFLVKFGLLWAGYLNFHPLLNLVFAAFLLMPLPRYSLHRLRHWIALPIGFALFWHDTWLPGPESIMSQGSQVAGFSTDYLIDLVTRFINWQMIGAIFVLLVAWLFLSQWIRITVFVVAILLWLNVLTLAGPSFSLWPAGQPTTTVTTTGGNAAATVAATGGAPVVGDMPAQTAPPTTANLNAWLNNFYNAEAKRKSTFPSSLPADAQPFELLVINICSLSWSDIEAAGLMSHPLWSHFDIEFKNFNSATSYSGPAAIRLLRASCGQTSHTNLYQPANNDCYLFDNLSKLGFTQHLMMGHNGQFGGFLKEVRENGGMQSELMDQTNLPVILLGFDGSPVYDDTAVLNRWLDVTEKDKNSRSATFYNTLPLHDGNHYPGVSKTADYKARAQKFFDELDAFFTELEKSGRKVMVVVVPEHGGALKGDRMQVSGLRDIPSPSITDVPVGVKFFGMKAPHQGAPIVIEQPSSFLAISDLVVRVLDGKIFTEDNVDWKKLTSGLPQTAPVSENSNAVVIQYQDKPYVRLNGGDWVPYPQ
- binding: binds weakly
